Assay results: article PMC12396377
These are yes or no findings as the source states them, for the method shown. Binding seen in cells or lysates may run through a third protein. Some binding calls cover weakened binding; strength is not graded here. For some of these results: Where a sequence is shown, tags or fusion partners need not be part of it. Each block holds one molecule with its values, some of them ahead of it.

The chains behind the UniProt entries cited, without tags or fusion partners. Where a name states a change or a piece, a line headed by the entry shows the natural chain unless it says otherwise.
UniProt P19532: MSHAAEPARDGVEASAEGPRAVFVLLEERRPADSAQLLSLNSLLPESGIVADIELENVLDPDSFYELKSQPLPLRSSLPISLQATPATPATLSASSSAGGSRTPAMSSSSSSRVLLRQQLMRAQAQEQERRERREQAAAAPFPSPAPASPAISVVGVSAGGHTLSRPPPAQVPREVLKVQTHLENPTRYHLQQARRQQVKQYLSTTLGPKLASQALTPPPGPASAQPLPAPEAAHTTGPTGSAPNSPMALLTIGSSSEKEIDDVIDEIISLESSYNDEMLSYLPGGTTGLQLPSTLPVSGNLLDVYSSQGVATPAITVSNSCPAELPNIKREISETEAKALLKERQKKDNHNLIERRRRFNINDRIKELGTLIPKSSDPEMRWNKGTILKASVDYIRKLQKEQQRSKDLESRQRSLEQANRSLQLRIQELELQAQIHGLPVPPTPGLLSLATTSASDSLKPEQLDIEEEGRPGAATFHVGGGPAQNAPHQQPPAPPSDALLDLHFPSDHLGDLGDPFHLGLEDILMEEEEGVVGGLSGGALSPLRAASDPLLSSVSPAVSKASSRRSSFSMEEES
UniProt O75030: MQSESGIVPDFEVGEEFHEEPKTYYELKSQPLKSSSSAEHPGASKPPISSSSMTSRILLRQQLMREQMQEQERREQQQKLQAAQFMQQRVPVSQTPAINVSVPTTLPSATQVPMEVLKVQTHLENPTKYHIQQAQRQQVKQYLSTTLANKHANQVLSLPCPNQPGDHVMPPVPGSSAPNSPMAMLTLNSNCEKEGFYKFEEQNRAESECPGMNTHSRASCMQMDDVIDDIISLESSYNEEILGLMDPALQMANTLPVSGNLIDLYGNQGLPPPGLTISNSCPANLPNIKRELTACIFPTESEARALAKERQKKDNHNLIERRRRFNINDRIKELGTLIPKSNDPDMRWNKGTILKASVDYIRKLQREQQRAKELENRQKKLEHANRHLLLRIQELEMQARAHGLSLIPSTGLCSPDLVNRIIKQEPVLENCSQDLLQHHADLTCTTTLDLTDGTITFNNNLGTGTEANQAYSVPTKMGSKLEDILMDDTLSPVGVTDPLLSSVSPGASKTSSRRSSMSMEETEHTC
UniProt P19484: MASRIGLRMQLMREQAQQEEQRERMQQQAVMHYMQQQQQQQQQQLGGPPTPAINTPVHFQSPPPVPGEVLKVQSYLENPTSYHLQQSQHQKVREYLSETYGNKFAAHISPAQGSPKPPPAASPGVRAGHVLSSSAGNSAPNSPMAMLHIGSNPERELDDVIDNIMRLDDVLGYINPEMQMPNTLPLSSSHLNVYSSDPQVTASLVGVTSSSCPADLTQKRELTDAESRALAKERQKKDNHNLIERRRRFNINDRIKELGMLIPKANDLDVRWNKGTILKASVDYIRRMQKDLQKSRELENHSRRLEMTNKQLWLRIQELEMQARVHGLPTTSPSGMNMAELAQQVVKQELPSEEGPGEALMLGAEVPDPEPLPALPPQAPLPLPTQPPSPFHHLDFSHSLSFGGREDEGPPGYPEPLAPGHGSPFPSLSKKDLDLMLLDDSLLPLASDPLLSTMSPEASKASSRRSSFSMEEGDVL
UniProt P27695: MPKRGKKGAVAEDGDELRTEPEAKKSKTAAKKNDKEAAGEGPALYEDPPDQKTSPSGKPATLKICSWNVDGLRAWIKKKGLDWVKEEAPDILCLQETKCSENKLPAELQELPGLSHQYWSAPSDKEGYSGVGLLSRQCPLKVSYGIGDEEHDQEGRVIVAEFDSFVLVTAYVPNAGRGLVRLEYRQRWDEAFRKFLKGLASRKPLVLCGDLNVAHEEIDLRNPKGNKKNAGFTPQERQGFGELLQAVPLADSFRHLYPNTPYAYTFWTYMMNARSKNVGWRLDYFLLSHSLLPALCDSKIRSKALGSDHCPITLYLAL

Legend:
TFE3::EGFP = TFE3::EGFP (UniProt P19532); assay: proximity ligation; Duolink PLA in WT HeLa cells expressing TFE3::EGFP or MITF::EGFP, indicated plasmids transiently transfected; untreated or 1 mM LLOMe for 3 h
MITF::EGFP = MITF::EGFP (UniProt O75030); assay: as above
TFEB::EGFP [1] = target: TFEB::EGFP (UniProt P19484); assay: proximity ligation; Duolink PLA in WT or ATG7 KO HeLa cells stably expressing TFEB::EGFP, 3×FLAG::APEX1 transiently transfected; 1 mM LLOMe for 1 h or 3 h; anti-FLAG (mouse) and anti-GFP (rabbit) primary antibodies
TFEB::EGFP [2] = target: TFEB::EGFP (UniProt P19484); assay: condition: only untreated control cells (without LLOMe); proximity ligation; Duolink PLA in HeLa cells stably expressing TFEB::EGFP, 3×FLAG::APEX1 transiently transfected; untreated control cells (no LLOMe); anti-FLAG and anti-GFP primary antibodies
[3] = target: TFEB (as used in the PLA with mNG::APEX1 WT and mutants, Figure S4 M) (UniProt P19484); assay: proximity ligation; Duolink PLA in WT HeLa cells stably expressing mNG::stop, mNG::APEX1 WT or mNG::APEX1 mutants, transfected with siAPEX1; indicated plasmids transiently transfected; untreated or 1 mM LLOMe for 1 h
[4] = target: TFEB::mNG (transcription factor EB fused to mNeonGreen) (UniProt P19484); assay: co-IP; WT or ATG7 KO HeLa cells with or without stable TFEB::mNG, 3×FLAG-tagged protein transiently transfected; untreated or 1 mM LLOMe for 3 h; 0.1% formaldehyde cross-linking; HEPES-RIPA lysate; mNG-Trap magnetic agarose beads at 4°C overnight; immunoblots of FLAG and TFEB

binding (TFE3::EGFP): no binding
binding (MITF::EGFP): no binding
binding (TFEB::EGFP [1]): binds
binding (TFEB::EGFP [2]): no binding
Molecule: 3×FLAG::APEX1 (from UniProt P27695 1-318)

binding [3]: no binding
Molecule: mNG::APEX1 C65A (redox inactive APEX1 mutant, KD-resistant) (from UniProt P27695 1-318)

binding [3]: no binding
Molecule: mNG::APEX1 Δ1-33 (nuclear localization signal depleted APEX1 mutant, KD-resistant) (from UniProt P27695 34-318) (domain or fragment)

binding [4]: binds
B1: 3×FLAG::TRIP6 (protein, UniProt Q15654 1-476)
chain: MSGPTWLPPKQPEPARAPQGRAIPRGTPGPPPAHGAALQPHPRVNFCPLPSEQCYQAPGGPEDRGPAWVGSHGVLQHTQGLPADRGGLRPGSLDAEIDLLSSTLAELNGGRGHASRRPDRQAYEPPPPPAYRTGSLKPNPASPLPASPYGGPTPASYTTASTPAGPAFPVQVKVAQPVRGCGPPRRGASQASGPLPGPHFPLPGRGEVWGPGYRSQREPGPGAKEEAAGVSGPAGRGRGGEHGPQVPLSQPPEDELDRLTKKLVHDMNHPPSGEYFGQCGGCGEDVVGDGAGVVALDRVFHVGCFVCSTCRAQLRGQHFYAVERRAYCEGCYVATLEKCATCSQPILDRILRAMGKAYHPGCFTCVVCHRGLDGIPFTVDATSQIHCIEDFHRKFAPRCSVCGGAIMPEPGQEETVRIVALDRSFHIGCYKCEECGLLLSSEGECQGCYPLDGHILCKACSAWRIQELSATVTTDC
